Data published in article doi:10.1101/2022.03.26.485909.

Biological target: Flag-SPOP^cyto (residues 1-366) (human)
Assay: co-IP

B1: Myc-DUSP7 (protein, UniProt Q16829-1 1-419)
chain: MKNQLRGPPARAHMSTSGAAAAGGTRAGSEPGAGSGSGAGTGAGAATGAGAMPCKSAEWLQEELEARGGASLLLLDCRPHELFESSHIETAINLAIPGLMLRRLRKGNLPIRSIIPNHADKERFATRCKAATVLLYDEATAEWQPEPGAPASVLGLLLQKLRDDGCQAYYLQGGFNKFQTEYSEHCETNVDSSSSPSSSPPTSVLGLGGLRISSDCSDGESDRELPSSATESDGSPVPSSQPAFPVQILPYLYLGCAKDSTNLDVLGKYGIKYILNVTPNLPNAFEHGGEFTYKQIPISDHWSQNLSQFFPEAISFIDEARSKKCGVLVHCLAGISRSVTVTVAYLMQKMNLSLNDAYDFVKRKKSNISPNFNFMGQLLDFERTLGLSSPCDNHASSEQLYFSTPTNHNLFPLNTLEST
With B1 the binding was “binds”.

Results are given in words; binding and its absence hold for the method and conditions named. In cells and extracts the contact can be indirect. Binding calls can cover weak binding; strength is not graded here. Where a sequence is shown, tags or fusion partners need not be part of it.
